Each structure is given as a SMILES string.

The nature of series [1]: detection of the release of a volatile compound (perception of odor). The conditions noted are these: 10 mg product mixed with 10 mg NaIO4 and 1 g MgSO4, left in air.
Series [2] in a line: stability of the substrates / oxidation by periodate in the presence of BSA. The class given is physicochemical. Conditions: 100 μm of substrate, 1 mmol of sodium periodate, 2 mg/ml of BSA, borate buffer pH 8.8. From the text:
The oxidation of 1,2 diols and amino alcohols by periodate in an aqueous medium is a reaction that is well known to one skilled in the art. This reaction provides a purely chemical alternative for the conversion of alcohols into carbonyl groups in aqueous medium with a high chemoselectivity in the presence of other functional groups.
The substrates acetates 1, amide 5 and epoxide 6 are stable in the presence of periodate and BSA […] the aqueous media. […] Under optimized reaction conditions using 100 μm of substrate, 1 mmol of sodium periodate, 2 mg/ml of BSA in a borate buffer with a pH of 8.8, diol 2 is transformed into umbelliferone with a yield of 72% without observable secondary reactions. […] The oxidation of amino alcohol 6 takes place with a yield of 85% under the same conditions.

For the compound `CCCC(O)CO` (stereo not shown) [1,2-Pentanediol, 1,2-pentanediol], the “perception of perfumes (odor)” value in series [1] (Period: 1 month) was 2 or 3 ml of water; in series [1] (Period: 5 months), “A larger amount of”; in series [1] (Period: 5 days) it was 2 or 3 drops of; in series [1] (Period: day), “A simple stirring”.

For the compound `OC(c1ccccc1)C(O)c1ccccc1` (stereo not shown) [Hydrobenzoin, hydrobenzoin], the “perception of perfumes (odor)” value in series [1] (Period: 1 month) is given as 2 or 3 ml of water; in series [1] (Period: 5 months) it was “idem”; in series [1] (Period: 5 days) it was 2 or 3 drops of; in series [1] (Period: day), “A simple stirring of”.

For the compound `NCC(O)CCOc1ccc2ccc(=O)oc2c1` (stereo not shown) [amino alcohol 6, 1-Amino-4-(7-coumarinyloxy)-2-butanol], the “oxidation yield (transformed into umbelliferone)” value in series [2] is given as 85%.

For the compound `O=c1ccc2ccc(OCC[C@H](O)CO)cc2o1` [diol 2, (S)-4-(7-coumarinyloxy)-1,2-butanediol], in series [2], the “oxidation yield (transformed into umbelliferone)” value turned out to be 72%.

(Values after patent US20030199017A1, “Method for releasing a product comprising chemical oxidation, method for detecting said product and uses thereof” (Proteus, priority 2000, published 2003).)
